The assay concerns the target Cyno CD117, soluble (cynoCD117 1-520) (cynomolgus monkey). Description: SPR Biacore 4000, captured antibody, soluble CD117 analyte. Background: In SPR one partner is held on a chip, and binding of the other changes the refractive index at the surface.

Results are given in words; binding and its absence hold for the method and conditions named. Some results given as binding are weak or reduced against the parent protein; the word gives no strength.

We go through one molecule from US20250171536A1.

B1: hu4A2 IgA2 (hu4A2-hKhA2 (P221R)) (antibody)
heavy: EVQLLESGGGLVQPGGSLRLSCAASGFTFSDYGMSWVRQAPGKGLEWVSAIGYGGGGKYYADSVKGRFTISRDNSKNTLYLQMNSLRAEDTAVYYCAKDTWWLAGLFDYWGQGTLVTVSSASPTSPKVFPLSLDSTPQDGNVVVACLVQGFFPQEPLSVTWSESGQNVTARNFPPSQDASGDLYTTSSQLTLPATQCPDGKSVTCHVKHYTNSSQDVTVPCRVPPPPPCCHPRLSLHRPALEDLLLGSEANLTCTLTGLRDASGATFTWTPSSGKSAVQGPPERDLCGCYSVSSVLPGCAQPWNHGETFTCTAAHPELKTPLTANITKSGNTFRPEVHLLPPPSEELALNELVTLTCLARGFSPKDVLVRWLQGSQELPREKYLTWASRQEPSQGTTTFAVTSILRVAAEDWKKGDTFSCMVGHEALPLAFTQKTIDRLAGKPTHVNVSVVMAEVDGTCY
light: EIVLTQSPGTLSLSPGKRATLSCRASQSVSNSYLAWYQQKPGQPPKLLIYWASTRESGVPDRFSGSGSGTDFTLTISSLQAEDVAVYYCQQYYSTPLTFGGGTKVEIKRTVAAPSVFIFPPSDEQLKSGTASVVCLLNNFYPREAKVQWKVDNALQSGNSQESVTEQDSKDSTYSLSSTLTLSKADYEKHKVYACEVTHQGLSSPVTKSFNRGEC
Turning to B1, the binding result is given as “binds”.
